# From PubChem BioAssay AID2517 (National Center for Advancing Translational Sciences (NCATS), 2010)
# Chains of the proteins cited; added tags and fusions are not shown.
# UniProt P27695, whole entry, looked up: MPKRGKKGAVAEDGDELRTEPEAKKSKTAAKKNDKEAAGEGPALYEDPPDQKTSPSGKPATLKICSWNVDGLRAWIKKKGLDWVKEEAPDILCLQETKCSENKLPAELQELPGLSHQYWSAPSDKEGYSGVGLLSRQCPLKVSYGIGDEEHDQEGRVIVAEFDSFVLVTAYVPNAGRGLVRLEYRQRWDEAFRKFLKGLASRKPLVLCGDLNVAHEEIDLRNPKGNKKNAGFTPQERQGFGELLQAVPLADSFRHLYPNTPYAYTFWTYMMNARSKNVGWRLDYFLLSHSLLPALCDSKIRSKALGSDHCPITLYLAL
# Hit rate of the full screen: of about 350,000 compounds, about 1,200 (0.34%) were called active. The shares of active, inactive and inconclusive entries below differ from those in the screen. Calls come from the whole dose curve; as a rule, active = well fitted inhibition curve with a large enough effect; inconclusive = small, poorly fitted or top-dose-only effect; inactive = no such curve, though single readings can be large or run the other way. Potencies of inconclusive entries are doubtful fits and often do not repeat.
# Target: DNA repair nuclease/redox regulator APEX1 (Homo sapiens) (UniProt P27695)
# Test: qHTS Assay for Inhibitors of the Human Apurinic/apyrimidinic Endonuclease 1 (APE1); note: nearly all actives have a fitted effect of over 55% in size;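 for activity change, negative = inhibition: plate controls were vehicle for no effect and reference inhibitor for full effect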
# Conditions: recombinant APE1, TAMRA/BHQ-2 abasic DNA cleavage fluorescence; activity change, negative = inhibition: at 65.8 µM (top of the series)
# How it was run: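 Step 1: APE1 (0.75 nM) with compound, 15 min RT. Step 2: add 50 nM fluorophore/quencher THF duplex. Step 3: three fluorescence reads 60 s apart (525/598 nm); read 3 minus read 1 = reaction progress.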
# Potency is the fitted concentration of half-maximal effect.
Structure (SMILES),"activity change, negative = inhibition",Potency
CCn1c(C)[n+](CC)c2ccc(S(=O)(=O)N(C)C)cc21,inactive: 1.93%,
COc1cc2ccccc2cc1C(=O)NCC(c1cccs1)N(C)C (stereo not given),,"inconclusive: 4.47 µM [inhibitor, single point]"
O=C(C1CC1)N1CCc2sccc2C1c1ccc(Cl)cc1 (stereo not given),,"inconclusive: 1.58 µM [inhibitor, full curve, poor fit]"
Cc1ccc(/C=C/c2nc3sc(C(=O)O)c(C)c3c(=O)[nH]2)cc1[N+](=O)[O-],,active: 8.44 µM
CCOc1ccc(-n2c(C)cc(/C=N/Nc3nc(C)cc(=O)[nH]3)c2C)cc1,,"inconclusive: 7.94 µM [inhibitor, single point]"
COc1cc2ccc(=O)oc2c(O[C@@H]2O[C@H](CO)[C@@H](O)[C@H](O)[C@H]2O)c1O,,inactive
COc1ccc2nc3ccccc3nc2c1N,,"inconclusive: 0.316 µM [inhibitor, full curve, poor fit]"
COC(=O)C1C2CC3c4[nH]c5cc(OC)ccc5c4CCN3CC2CC(OC(=O)c2cc(OC)c(OC)c(OC)c2)C1OC (stereo not given),,"inconclusive: 44.7 µM [inhibitor, partial curve]"
O=C(COC(=O)c1ccc(O)cc1)Nc1ccc(Cl)cc1,,"inconclusive: 5.62 µM [inhibitor, partial curve]"
COc1cccc(-c2noc(-c3ccc4c(c3)OCO4)n2)c1,,"inconclusive: 35.5 µM [inhibitor, single point]"
CCOc1cccc(OCCOc2ccccc2[N+](=O)[O-])c1,inactive: -5%,
CNC(=O)C12N=CNN=C1N(C)C(=O)N2C (stereo not given),,"inconclusive: 0.794 µM [inhibitor, full curve, poor fit]"
Cc1c(C(=O)Nc2nc(-c3ccccn3)cs2)oc2ccccc12,inactive: -17.4%,
COc1ccccc1-c1ccc2ncnc(NCc3cnc(C)cn3)c2c1,,"inconclusive: 0.0708 µM [inhibitor, full curve]"
Cc1ccc(-c2nc(SCC(=O)Nc3ccccc3OC(F)F)c3c(C)c(C(=O)O)sc3n2)cc1,,active: 39.8 µM
Nc1ccc(C2=Nc3cccc4cccc(c34)N2)cc1,inactive: 4.38%,
CC(C)(C)Cc1nnc(NS(=O)(=O)c2ccccc2)s1,,"inconclusive: 39.8 µM [inhibitor, single point]"
O=C(Nc1nc(-c2cccs2)c(-c2ccccc2)s1)c1ccco1,,"inconclusive: 17.8 µM [inhibitor, single point]"
O=C1OC2(c3cc(Br)c(O)c(Br)c3Oc3c2cc(Br)c(O)c3Br)c2c(Cl)c(Cl)c(Cl)c(Cl)c21,,active: 4.47 µM
COc1cc(/C=C/C(=O)OCC(=O)Nc2ccc(Cl)cn2)ccc1O,,"inconclusive: 21.2 µM [inhibitor, partial curve]"

# An excerpt from above in order of SMILES length, descending:
Structure (SMILES),"activity change, negative = inhibition",Potency
Cc1ccc(/C=C/c2nc3sc(C(=O)O)c(C)c3c(=O)[nH]2)cc1[N+](=O)[O-],,active: 8.44 µM
Cc1c(C(=O)Nc2nc(-c3ccccn3)cs2)oc2ccccc12,inactive: -17.4%,
CCOc1cccc(OCCOc2ccccc2[N+](=O)[O-])c1,inactive: -5%,
